Experimental data reported in patent publication US20140363406A1, “ESTROGEN METABOLITE LEVELS AND CYP1B1 POLYMORPHISMS IN LUNG CANCER DIAGNOSIS, PROGNOSIS, AND RISK ASSESSMENT” (Institute for Cancer Research d/b/a The Research Institute …, priority 2012, published 2014).

Experiment: LC-MS2 levels of estrogen and its metabolites in perfused lungs of wild-type 129SvJ mice
Format: in vivo, mouse
Details: for level in female lung versus male lung (in words): absolute level; for level in lungs of female mice compared with male mice: higher in females

Row | SMILES | level in female lung versus male lung (in words) (wild-type 129SvJ mice) | level in lungs of female mice compared with male mice (wild-type 129SvJ mice) | also measured
1 | COc1cc2c(cc1O)CC[C@@H]1[C@@H]2CC[C@]2(C)[C@@H](O)CC[C@@H]12 [2-OMeE2, 2-methoxyestradiol] | higher in female lungs |  | 
2 | C[C@]12CC[C@@H]3c4cc(O)c(O)cc4CC[C@H]3[C@@H]1CCC2=O [2-OHE1, 2-hydroxyestrone] | comparable in both genders |  | concentration as percentage of total estrogen, between genders (in words) (wild-type 129SvJ mice): neither 2-OHE1 nor 2-OMeEs varied significantly
3 | C[C@]12CC[C@@H]3c4ccc(O)c(O)c4CC[C@H]3[C@@H]1CC[C@@H]2O [4-OHE2, 4-hydroxyestradiol] |  | 2 fold | 
4 | COc1cc2c(cc1O)CC[C@@H]1[C@@H]2CC[C@]2(C)C(=O)CC[C@@H]12 [2-OMeE1, 2-methoxyestrone] | higher in female lungs |  | 
5 | C[C@]12CC[C@@H]3c4ccc(O)cc4CC[C@H]3[C@@H]1C[C@@H](O)[C@@H]2O [E3, estriol] |  |  | concentration in the lungs (endogenous level, perfused lungs of both male and female wild-type 129SvJ mice): ~1 pg/g
6 | C[C@]12CC[C@@H]3c4ccc(O)c(O)c4CC[C@H]3[C@@H]1CCC2=O [4-OHE1, 4-hydroxyestrone] |  | 2 fold | level within the lungs (endogenous level, female wild-type 129SvJ mice): 7.26 pg/g; level within the lungs (endogenous level, male wild-type 129SvJ mice): 3.26 pg/g
